Laboratory results from ChEMBL document CHEMBL4316593 (Eur J Med Chem, 2019).
The source gives many values for each of these; only a part stands here.

Key:
Type in all cases: cell-based
Conditions in all cases: U-87MG ATCC
[1] = Inhibition of RTK/PI3K/AKT/mTOR signaling in human U87 cells assessed as up regulation of TP53 gene expression at cytotoxic IC50 measured after 48 hrs relative to control
[2] = Inhibition of RTK/PI3K/AKT/mTOR signaling in human U87 cells assessed as down regulation of DR1 gene expression at cytotoxic IC50 measured after 48 hrs relative to control
[3] = Inhibition of RTK/PI3K/AKT/mTOR signaling in human U87 cells assessed as down regulation of DRAXIN gene expression at cytotoxic IC50 measured after 48 hrs relative to control
[4] = Inhibition of RTK/PI3K/AKT/mTOR signaling in human U87 cells assessed as up regulation of transmembrane protein 9 gene expression at cytotoxic IC50 measured after 48 hrs relative to control
[5] = Inhibition of RTK/PI3K/AKT/mTOR signaling in human U87 cells assessed as down regulation of ZNF777 gene expression at cytotoxic IC50 measured after 48 hrs relative to control
[6] = Inhibition of RTK/PI3K/AKT/mTOR signaling in human U87 cells assessed as up regulation of HSPA9 gene expression at cytotoxic IC50 measured after 48 hrs relative to control
[7] = Inhibition of RTK/PI3K/AKT/mTOR signaling in human U87 cells assessed as up regulation of prolyl 4-hydroxylase subunit alpha 2 gene expression at cytotoxic IC50 measured after 48 hrs relative to control
[8] = Inhibition of RTK/PI3K/AKT/mTOR signaling in human U87 cells assessed as up regulation of PABPC1 gene expression at cytotoxic IC50 measured after 48 hrs relative to control
[9] = Inhibition of RTK/PI3K/AKT/mTOR signaling in human U87 cells assessed as up regulation of dimethylarginine dimethylaminohydrolase 2 gene expression at cytotoxic IC50 measured after 48 hrs relative to control
[10] = Inhibition of RTK/PI3K/AKT/mTOR signaling in human U87 cells assessed as up regulation of MYC associated zinc finger protein gene expression at cytotoxic IC50 measured after 48 hrs relative to control
[11] = Inhibition of RTK/PI3K/AKT/mTOR signaling in human U87 cells assessed as up regulation of SYT7 gene expression at cytotoxic IC50 measured after 48 hrs relative to control
[12] = Inhibition of RTK/PI3K/AKT/mTOR signaling in human U87 cells assessed as down regulation of RAP1B gene expression at cytotoxic IC50 measured after 48 hrs relative to control
[13] = Inhibition of RTK/PI3K/AKT/mTOR signaling in human U87 cells assessed as down regulation of NQO1 gene expression at cytotoxic IC50 measured after 48 hrs relative to control
[14] = Inhibition of RTK/PI3K/AKT/mTOR signaling in human U87 cells assessed as up regulation of MTMR4 gene expression at cytotoxic IC50 measured after 48 hrs relative to control
[15] = Inhibition of RTK/PI3K/AKT/mTOR signaling in human U87 cells assessed as up regulation of SEH1 like nucleoporin gene expression at cytotoxic IC50 measured after 48 hrs relative to control
[16] = Inhibition of RTK/PI3K/AKT/mTOR signaling in human U87 cells assessed as down regulation of RAB3IP gene expression at cytotoxic IC50 measured after 48 hrs relative to control
[17] = Inhibition of RTK/PI3K/AKT/mTOR signaling in human U87 cells assessed as down regulation of NBR1 gene expression at cytotoxic IC50 measured after 48 hrs relative to control
[18] = Inhibition of RTK/PI3K/AKT/mTOR signaling in human U87 cells assessed as up regulation of RNA binding motif (RNP1, RRM) protein 3 gene expression at cytotoxic IC50 measured after 48 hrs relative to control
[19] = Inhibition of RTK/PI3K/AKT/mTOR signaling in human U87 cells assessed as down regulation of CD59 gene expression at cytotoxic IC50 measured after 48 hrs relative to control
[20] = Inhibition of RTK/PI3K/AKT/mTOR signaling in human U87 cells assessed as down regulation of SLC7A8 gene expression at cytotoxic IC50 measured after 48 hrs relative to control
[21] = Inhibition of RTK/PI3K/AKT/mTOR signaling in human U87 cells assessed as up regulation of troponin T1, slow skeletal type gene expression at cytotoxic IC50 measured after 48 hrs relative to control
[22] = Inhibition of RTK/PI3K/AKT/mTOR signaling in human U87 cells assessed as up regulation of CD47 molecule gene expression at cytotoxic IC50 measured after 48 hrs relative to control
[23] = Inhibition of RTK/PI3K/AKT/mTOR signaling in human U87 cells assessed as up regulation of EH domain binding protein 1 gene expression at cytotoxic IC50 measured after 48 hrs relative to control
[24] = Inhibition of RTK/PI3K/AKT/mTOR signaling in human U87 cells assessed as up regulation of salvador family WW domain containing protein 1 gene expression at cytotoxic IC50 measured after 48 hrs relative to control
[25] = Inhibition of RTK/PI3K/AKT/mTOR signaling in human U87 cells assessed as up regulation of peptidyl arginine deiminase 2 gene expression at cytotoxic IC50 measured after 48 hrs relative to control
[26] = Inhibition of RTK/PI3K/AKT/mTOR signaling in human U87 cells assessed as up regulation of zinc finger protein 22 gene expression at cytotoxic IC50 measured after 48 hrs relative to control
[27] = Inhibition of RTK/PI3K/AKT/mTOR signaling in human U87 cells assessed as down regulation of ZNF107 gene expression at cytotoxic IC50 measured after 48 hrs relative to control
[28] = Inhibition of RTK/PI3K/AKT/mTOR signaling in human U87 cells assessed as down regulation of TBCD gene expression at cytotoxic IC50 measured after 48 hrs relative to control
[29] = Inhibition of RTK/PI3K/AKT/mTOR signaling in human U87 cells assessed as down regulation of AP2M1 gene expression at cytotoxic IC50 measured after 48 hrs relative to control
[30] = Inhibition of RTK/PI3K/AKT/mTOR signaling in human U87 cells assessed as up regulation of replication initiator 1 gene expression at cytotoxic IC50 measured after 48 hrs relative to control
[31] = Inhibition of RTK/PI3K/AKT/mTOR signaling in human U87 cells assessed as down regulation of ZNF699 gene expression at cytotoxic IC50 measured after 48 hrs relative to control
[32] = Inhibition of RTK/PI3K/AKT/mTOR signaling in human U87 cells assessed as down regulation of SBDS gene expression at cytotoxic IC50 measured after 48 hrs relative to control

Compound: CC(=O)C(=NNc1ccccc1C#N)C(C)=O
- log2FC [1]: 0.532
- log2FC [2]: -0.569
- log2FC [3]: -1.26
- log2FC [4]: 0.752
- log2FC [5]: -0.845
- log2FC [6]: 0.435
- log2FC [7]: 1.15
- log2FC [8]: 0.292
- log2FC [9]: 0.912
- log2FC [10]: 0.898
- log2FC [11]: 0.611
- log2FC [12]: -0.663
- log2FC [13]: -0.495
- log2FC [14]: 0.62
- log2FC [15]: 0.648
- log2FC [16]: -0.638
- log2FC [17]: -0.465
- log2FC [18]: 1.03
- log2FC [19]: -0.872
- log2FC [20]: -1.18
- log2FC [21]: 1.17
- log2FC [22]: 0.789
- log2FC [23]: 1.43
- log2FC [24]: 0.95
- log2FC [25]: 1.38
- log2FC [26]: 1.01
- log2FC [27]: -1.74
- log2FC [28]: -0.993
- log2FC [29]: -0.795
- log2FC [30]: 0.814
- log2FC [31]: -2.18
- log2FC [32]: -0.993
